# Measured values from patent publication US20030114375A1, “Method for treating cystic fibrosis” (The Government of the USA, Dept of Health and Human …, priority 1994, published 2003).
# By UniProt entry, the sequences of proteins in these tests, tags left out.
# UniProt P30543, whole entry: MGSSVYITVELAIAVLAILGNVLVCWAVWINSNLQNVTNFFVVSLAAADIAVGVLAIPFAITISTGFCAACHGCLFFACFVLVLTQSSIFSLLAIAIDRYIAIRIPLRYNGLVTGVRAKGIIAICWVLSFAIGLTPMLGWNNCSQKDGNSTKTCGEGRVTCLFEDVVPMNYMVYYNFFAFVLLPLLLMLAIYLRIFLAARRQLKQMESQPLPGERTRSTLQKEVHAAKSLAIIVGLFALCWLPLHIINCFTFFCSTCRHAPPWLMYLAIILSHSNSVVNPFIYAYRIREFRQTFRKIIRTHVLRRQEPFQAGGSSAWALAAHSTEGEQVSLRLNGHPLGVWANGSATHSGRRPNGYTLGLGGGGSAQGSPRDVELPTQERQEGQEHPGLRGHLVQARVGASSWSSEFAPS
# “Also recorded” adds a separate entry of the source. At least one compound was matched to its structure with a doubt left.
# How the values were obtained:
# CFPAC cells = assay: [36Cl]- efflux from CFPAC cells
# A2a-adenosine receptor = molecular target: T1, A2a-adenosine receptor (Rattus norvegicus, UniProt P30543); assay: Inhibition of [3H]CGS 21680 binding to A2a receptors
# T1 construct: Rat cerebral cortical membranes and striatal membranes were prepared; from tissue; host or cells: rat striatal membranes
# Protocol: (§1) Solid samples of the adenosine derivatives were dissolved in dimethyl sulfoxide (DMSO) and stored in the art at. −20° C. The stock solutions were diluted with DMSO to a concentration of ≦0.1 mM prior to addition to the aqueous medium. The final concentration of DMSO in the assay medium was generally 2%.
# Membranes (^˜80 μg protein per tube) were incubated for one hour at 25° C. in a total volume of 0.5 ml of a buffer solution consisting of […] tris hydrochloride and 10 mM MgCl2 at pH 7.4. Test drugs were dissolved in DMSO and added in 10 μl aliquots, resulting in a final DMSO concentration of 2%. Non-specific binding was defined using 20 μM 2-chloroadenosine. Filtration was carried out using a Brandel Cell Harvester, as above, using the tris.HCl/MgCl2 buffer recited hereinabove as the washing buffer.
# (§2) At least six different concentrations spanning three orders of magnitude, adjusted appropriately for the IC50 of each compound, were used.
# A1-adenosine receptor = molecular target: T2, A1-adenosine receptor (Rattus norvegicus, UniProt P25099); assay: Inhibition of [3H]N6-phenylisopropyladenosine binding to A1 receptors
# T2 construct: Rat cerebral cortical membranes and striatal membranes were prepared; from tissue; host or cells: rat cerebral cortex membranes
# T2 sequence (P25099 1-326): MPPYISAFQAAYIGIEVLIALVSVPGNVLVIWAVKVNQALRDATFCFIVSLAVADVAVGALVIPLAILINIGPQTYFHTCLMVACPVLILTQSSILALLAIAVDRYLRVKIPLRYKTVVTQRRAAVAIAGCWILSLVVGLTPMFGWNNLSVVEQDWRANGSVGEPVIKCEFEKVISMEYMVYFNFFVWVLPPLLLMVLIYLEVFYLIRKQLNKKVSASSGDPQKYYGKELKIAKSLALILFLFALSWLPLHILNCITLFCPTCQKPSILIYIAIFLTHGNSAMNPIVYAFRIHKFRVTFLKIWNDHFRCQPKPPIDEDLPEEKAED
# Protocol: as §1
# Inhibition of binding of 1 nM [^3H]N^6-phenylisopropyladenosine (Dupont NEN, Boston, Mass.) to A1 receptors in rat cerebral cortex membranes was measured as described in Schwabe et al., Naunyn-Schmiedeberg's Arch. […] Membranes (^˜100 μg protein per tube) were incubated for 1.5 hours at 37° C. in a total volume of 0.5 ml of 50 mM tris hydrochloride at pH 7.4. Test drugs were dissolved in DMSO and added in 10 μl aliquots, resulting in a final DMSO concentration of 2%. Bound and free radioligand were separated by addition of 3 ml of a buffer containing 50 mM tris hydrochloride, at pH 7.4 at 5° C., followed by vacuum filtration using a Brandel Cell Harvester (Brandel, Gaithersburg, Md.) and a Whatman GF/B glass fiber filter with additional washes totaling 9 ml of buffer. Non-specific binding was determined with 10 μM 2-chloroadenosine.
# as §2
Structure (SMILES),Chloride efflux stimulation (summary words) (CFPAC cells),Affinity for A2 receptor (A2a-adenosine receptor),Affinity for A1 receptor (A1-adenosine receptor)
C=CCn1c(=O)c2[nH]c(C3CCCCC3)nc2n(CC=C)c1=O [Compound 17],stimulate chloride efflux at μM or lesser concentrations; also recorded: substantial efflux activity at low concentration ranges,,
"Cn1c(=O)c2c(nc(CC3CCCCC3)n2C)n(C)c1=O [Compound 22, 8-cyclohexylmethyl caffeine]",,little affinity,little affinity
